Molecules are shown by their SMILES. This is one part of the list. The main result of the screen is listed elsewhere. These columns were measured beside it and carry no call. The list favours compounds with an active or inconclusive main result. Potencies come from curve fits of mixed quality, noted in brackets.

A short description of the test: qHTS Assay for Lipid Storage Modulators in Drosophila S3 Cells.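 For cell number change: cells counted by Cell Tracker Red CMTPX staining in the red channel.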 The settings on record: BODIPY lipid droplet fluorescence, 18-24 h; for cell number change: measured here: cell count max response, cells fed with added oleic acid. The gist of the method: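 Drosophila S3 cells got compounds at several concentrations plus oleic acid (400 uM solution). Laser-scanning cytometry with 488 nm excitation read lipid droplets at 500-530 nm and cells at 575-640 nm. Percent activity was relative to 20 uM Triacsin C.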
(In general: qHTS replaces the single test concentration by a dilution series.)

Setting [1] is: measured here: lipid fluorescence (Fed channel) AC50, cells fed with added oleic acid.
Setting [2] is: measured here: cell number channel AC50, cells fed with added oleic acid.

For the molecule `Cn1cc(S(=O)(=O)NCc2ccc(Cl)cc2)c(=O)n(C)c1=O`, the cell number change was -23.7%. Further, the AC50 under setting [1] is 9.2 µM [falling, partial curve, poor fit].

As to `O=c1sc2ccccc2c(=O)n1Cc1ccccc1F`, the cell number change turned out to be 13.3%. Moreover, under setting [2], the AC50 is 0.0517 µM [falling, full curve, poor fit].

With `Cc1c(C(=O)N2CCc3ccccc32)oc2c1C(=O)CC(C)(C)C2`, the concentration at half-maximal activity (AC50) under setting [2] was 4.61 µM [rising, single point] and the AC50 under setting [1] is 2.31 µM [rising, partial curve].

For `Cc1ccccc1C(=O)NC1CCN(C(=O)Nc2ccccc2Cl)CC1`, the cell number change is -39.1%. In addition, under setting [2], the concentration at half-maximal activity (AC50) is 32.6 µM [falling, single point].

Consider `O=C(NCCc1cccc(Cl)c1)c1cccnc1`, for which, under setting [2], the AC50 is 6.51 µM [rising, partial curve, poor fit].

Regarding `O=C(NCCc1c[nH]c2ccccc12)c1cccnc1`, the cell number change was 25.8%. In addition, the concentration at half-maximal activity (AC50) under setting [2] was 3.66 µM [rising, full curve, poor fit]. Also, the AC50 under setting [1] was 0.146 µM [falling, full curve, poor fit].

`O=C(Nc1ccccc1C(=O)NCCN1CCOCC1)c1ccc(Cl)cc1Cl`: the cell number change turned out to be 2.47%. The AC50 under setting [1] is 2.06 µM [falling, single point].

Regarding `CC(OC(=O)CCCN=C1NS(=O)(=O)c2ccccc21)C(=O)Nc1ccccc1F` (stereo unspecified), the AC50 under setting [2] is 0.116 µM [rising, full curve, poor fit].

Regarding `O=C(Nc1cccc(Cl)c1)c1ccc(F)c(S(=O)(=O)NCc2cccs2)c1`, the cell number change is -15.8%.

On to `N#CN=C1CCCCCN1CC(N)=O`, for which, under setting [1], the concentration at half-maximal activity (AC50) is 2.31 µM [falling, partial curve, poor fit].

Take `COc1ccc(Cl)cc1NC(=O)Cn1c(NCCO)nc2ccccc21`: under setting [1], the half-maximal activity concentration (AC50) is 29.1 µM [rising, single point].

For the molecule `COc1ccc(C2CC(c3cccs3)=NN2C(=O)CSc2nc3ccccc3o2)cc1` (stereo unspecified), the concentration at half-maximal activity (AC50) under setting [1] is 14.6 µM [falling, partial curve].

Regarding `Cc1ccccc1C(=O)Nc1ccc(N(C)C)c2ccccc12`, the cell number change amounted to 2.55%.

For the molecule `Cn1cccc1Cc1nnc(SCC(=O)Nc2ccc3c(c2)OCO3)n1CCc1ccccc1`, the cell number change was -1.99%. Further, the AC50 under setting [1] is 0.731 µM [rising, partial curve].

`CCCc1nc2oc3c(NCCN4CCOCC4)ncnc3c2c2c1CCCC2`: the cell number change is -12.7%.

As for `O=C(O)C1CCC(N2C(=O)C3CCCCC3C2=O)CC1` (stereo unspecified), the cell number change is -154%. In addition, under setting [2], the AC50 was 29.1 µM [falling, single point]. Besides, the concentration at half-maximal activity (AC50) under setting [1] is 6.51 µM [falling, single point].

For the molecule `COc1cccc(NC(=S)N(CCCN2CCOCC2)Cc2cn(C)c3ccccc23)c1`, the cell number change was -8.99%. In addition, the AC50 under setting [2] is 6.51 µM [rising, single point]. Moreover, the AC50 under setting [1] was 6.51 µM [rising, single point].

As to `O=C1CC(c2ccccc2)CN1C(=O)c1cccc([N+](=O)[O-])c1` (stereo unspecified), the cell number change was determined as 13.6%. Further, the AC50 under setting [1] was 0.461 µM [falling, single point].

In the case of `CCOC(=O)Cc1csc(NC(=O)CSc2nc(N)c3c(C)c(C)sc3n2)n1`, under setting [1], the half-maximal activity concentration (AC50) is 0.58 µM [rising, single point].

Regarding `CCOc1ccc(Nc2ncnc3ccc([N+](=O)[O-])cc23)cc1`, the cell number change is 38.5%. The AC50 under setting [2] was 29.1 µM [rising, single point].

Turning to `CCOC(=O)c1[nH]c2ccccc2c1NC(=O)CCN1CCN(C(=O)OCC)CC1`, the cell number change stood at 25.4%. In addition, the AC50 under setting [1] is 18.4 µM [rising, single point].

`COc1cc(NC(=O)COc2cc(O)c3c(c2)OC(C)(C)CC3=O)cc(OC)c1OC`: the cell number change is -27.5%. Under setting [1], the AC50 is 29.1 µM [falling, single point].

In the case of `Cc1ccc(S(=O)(=O)Nc2c(C)[nH]c(=O)[nH]c2=O)cc1C`, the cell number change is -24.9%. The AC50 under setting [1] was 29.1 µM [falling, single point].

For `COc1ccccc1NC(=O)CN1C(=O)NC2(CCCc3ccccc32)C1=O` (stereo unspecified), the cell number change was found to be 4.76%. Besides, the concentration at half-maximal activity (AC50) under setting [1] was 2.06 µM [falling, partial curve, poor fit].

On to `Cc1nc(C)c(-c2csc(Nc3ccc(O)cc3C)n2)s1`, for which the cell number change was -6.67%. The AC50 under setting [1] was 18.4 µM [rising, single point].

For the molecule `CC(=O)c1c(C)cc(C)c(CSc2nc(C)cc(=O)[nH]2)c1C`, the cell number change is 1.28%. The AC50 under setting [1] is 29.1 µM [rising, single point].

On to `COc1ccc2c(OC)c3ccoc3nc2c1OC`, for which the cell number change was 5.87%. In addition, the AC50 under setting [1] is 8.2 µM [falling, partial curve].

As to `O=C1NC(Nc2nc3ccccc3s2)(C(F)(F)F)C(=O)N1C1CCCCC1` (stereo unspecified), the cell number change was -62%. Further, the concentration at half-maximal activity (AC50) under setting [2] is 25.9 µM [falling, partial curve, poor fit]. For the same molecule, under setting [1], the AC50 was 13 µM [falling, partial curve].

On to `Fc1ccccc1N1CCN(C2CCCN(Cc3cccc(C(F)(F)F)c3)C2)CC1` (stereo unspecified), for which the cell number change was -26.3%.

On to `O=C(Nc1ccc(F)cc1Cl)C1CCN(C(=O)Nc2ccccc2)CC1`, for which the cell number change worked out at 5.92%. In addition, the AC50 under setting [1] was 29.1 µM [rising, single point].

`CC(=O)Nc1nc(C)c(Oc2cccc(C(F)(F)F)c2)c(=O)[nH]1`: the cell number change came to 5.51%.

As for `O=C(c1ccc(F)cc1)N(NC(=O)C(O)(c1ccccc1)c1ccccc1)c1ccccc1`, the cell number change was -5.12%. Besides, the AC50 under setting [2] was 0.13 µM [rising, full curve, poor fit].

On to `CCOc1ccccc1N1CC(C(=O)N(C)Cc2cccnc2)CC1=O` (stereo unspecified), for which the cell number change turned out to be 22.2%. Further, under setting [1], the AC50 was 20.6 µM [falling, partial curve, poor fit].

As for `C=CCn1cc(C(=O)NCCOC)c(=O)c2cc(S(=O)(=O)N3CCCCCC3)ccc21`, the cell number change turned out to be 25.2%. Also, the half-maximal activity concentration (AC50) under setting [1] was 4.61 µM [falling, single point].

`CCOc1ccc(NC(=O)CNc2ccc(C)cc2Cl)cc1`: the cell number change is 68.2%. Besides, the concentration at half-maximal activity (AC50) under setting [2] is 20.6 µM [rising, partial curve].

With `CC1(C)CC(=O)C2=C(C1)OC(/N=C/N1CCOCC1)=C(C#N)C2c1ccccc1` (stereo unspecified), the cell number change stood at 42.9%. Further, the AC50 under setting [2] is 7.31 µM [rising, partial curve, poor fit]. The AC50 under setting [1] is 3.66 µM [rising, single point].

In the case of `CCCN1CCN(S(=O)(=O)c2ccc(OC)c(Br)c2)CC1`, the cell number change was -11%.

Turning to `CN(CC(=O)Nc1cccc(F)c1)C(=O)Cn1c(=O)oc2ccccc21`, the cell number change is -19%. For the same molecule, under setting [1], the half-maximal activity concentration (AC50) was 0.291 µM [falling, partial curve, poor fit].

Consider `COc1cnn(Cc2ccccc2)c(=O)c1SCc1ccccc1`, for which the cell number change was -1.45%. Besides, the concentration at half-maximal activity (AC50) under setting [1] is 0.0231 µM [falling, full curve, poor fit].

With `COc1cc(NC(=O)CSCC(=O)N(C)C2CCCCC2)cc(OC)c1`, the cell number change is -56.5%. Besides, the AC50 under setting [2] was 13 µM [falling, partial curve]. Also, the concentration at half-maximal activity (AC50) under setting [1] is 1.46 µM [falling, full curve].

Regarding `c1ccc(C(c2nnnn2C2CCCCC2)N2CCc3ccccc3C2)nc1` (stereo unspecified), the cell number change was -12.5%. Besides, under setting [2], the AC50 is 4.11 µM [rising, single point]. Also, under setting [1], the AC50 is 0.366 µM [rising, full curve, poor fit].

Turning to `CC(=O)c1ccc(NC(=S)N2CCCCCC2)cc1`, the cell number change is -22.4%. Further, the AC50 under setting [1] is 14.1 µM [falling, partial curve, poor fit].

Turning to `CCCCN(C(=S)Nc1ccc(F)cc1)c1c(N)n(CCC)c(=O)[nH]c1=O`, the cell number change came out at 0.683%.

As for `O=C(Nc1ccn(Cc2ccccc2)n1)c1n[nH]c([N+](=O)[O-])c1Cl`, the cell number change turned out to be 2.07%. In addition, the concentration at half-maximal activity (AC50) under setting [1] was 0.00411 µM [rising, full curve, poor fit].

On to `CC(C)(C)OC(=O)N[C@@H](Cc1ccccc1)C(=O)NCC1CCC(C(=O)O)CC1` (stereo partly specified), for which the cell number change is -27.2%.

For the molecule `CCCCN(C)CCOc1ccccc1OCC`, the half-maximal activity concentration (AC50) under setting [2] is 6.51 µM [rising, single point].

Regarding `CCOC(=O)c1ccc2c(c1)N(C)C(=O)c1ccccc1S2`, the cell number change stood at 1.11%.

Turning to `Cc1[nH]nc(-c2ccc(O)c(C)c2O)c1Oc1ccccc1`, the cell number change was -72.9%. Under setting [2], the AC50 was 1.16 µM [falling, full curve].

`COc1cc(C(=O)NC2=NCCS2)ccc1OCc1c(C)noc1C`: the cell number change is -12.3%.

As for `CCOC(=O)C1=C(c2ccccc2)NC(SCC(=O)Nc2ccccc2C)=C(C#N)C1c1ccco1` (stereo unspecified), the AC50 under setting [1] was 0.164 µM [rising, full curve, poor fit].

For `CCOc1ccc(/C=N/NC(=O)CNC(=O)c2ccc(S(=O)(=O)N3CCOCC3)cc2)cc1`, the cell number change was found to be 10.2%. Further, under setting [1], the half-maximal activity concentration (AC50) is 0.00461 µM [falling, full curve].

On to `O=C(N[C@@H](Cc1c[nH]c2ccccc12)C(=O)O)OCC1c2ccccc2-c2ccccc21`, for which the cell number change was found to be 3.74%.

For the molecule `COc1ccc(-c2oc3ccccc3c2C#CC(C)(C)O)cc1`, the cell number change is -71.6%. The half-maximal activity concentration (AC50) under setting [2] is 4.11 µM [falling, partial curve]. Further, under setting [1], the AC50 was 0.184 µM [rising, full curve, poor fit].

As for `O=C(O)C(c1ccccc1)C1(O)CCCC1` (stereo unspecified), the cell number change amounted to 1.82%. Besides, under setting [1], the AC50 is 3.26 µM [falling, full curve].

For the molecule `CCCOc1cccc(-c2cc(C(=O)N/N=C/c3cccnc3)c3ccccc3n2)c1`, the cell number change is -0.867%. Under setting [1], the AC50 was 20.6 µM [falling, single point].

For `COC(=O)c1ccc(NC(=O)COC(=O)COc2cccc3c2OC(C)(C)C3)cc1`, the cell number change is -27.6%. In addition, the AC50 under setting [1] is 6.51 µM [falling, single point].

As for `O=C(CCN1C(=O)C2CC=CCC2C1=O)Nc1nc(-c2ccc(F)c(F)c2)cs1` (stereo unspecified), the cell number change is -29.5%.

Turning to `CC(NC(=O)C1CCN(S(=O)(=O)c2cc([N+](=O)[O-])ccc2Cl)CC1)c1ccccc1` (stereo unspecified), the cell number change was -7.12%. Further, the concentration at half-maximal activity (AC50) under setting [1] was 0.58 µM [rising, single point].

For `CCCc1cc(=O)[nH]c(Nc2ccc3c(c2)OCCO3)n1`, the cell number change was found to be 12.2%. Also, under setting [1], the AC50 was 4.11 µM [rising, single point].

For `CC(C)CCn1c(SCC(=O)NC2CC2)nc2cc(Cl)ccc2c1=O`, the cell number change was -4.48%.

Consider `CC(/C=N/NC(=O)Cc1cccn1C)=C\c1ccco1`, for which the cell number change was -33.3%. Further, the concentration at half-maximal activity (AC50) under setting [2] is 0.116 µM [falling, full curve].

For `O=C(CN(C(=O)C1CSC(=O)C1)c1ccccc1F)NCc1ccc2c(c1)OCO2` (stereo unspecified), the cell number change amounted to 15%. Also, under setting [1], the half-maximal activity concentration (AC50) is 2.91 µM [rising, partial curve].

For orientation: AC50 means the concentration giving half of the maximal activity seen. Lower therefore signals activity at low concentration.

The record behind these values is PubChem BioAssay AID2685 (National Center for Advancing Translational Sciences (NCATS), 2010).
